This passage reports binding results from article doi:10.1101/2025.07.24.666583.

By UniProt entry, the sequences of proteins in these tests, tags left out. Where a name states a change or a piece, a line headed by the entry shows the natural chain unless it says otherwise. Chains listed by the source or under a name are the forms on record and can include a tag or linker. Residues count along the entry.
dual-cassette helicase region of ASCC3 (residues 401-2202; ASCC3^HR WT) (Q8N3C0, residues 401-2202): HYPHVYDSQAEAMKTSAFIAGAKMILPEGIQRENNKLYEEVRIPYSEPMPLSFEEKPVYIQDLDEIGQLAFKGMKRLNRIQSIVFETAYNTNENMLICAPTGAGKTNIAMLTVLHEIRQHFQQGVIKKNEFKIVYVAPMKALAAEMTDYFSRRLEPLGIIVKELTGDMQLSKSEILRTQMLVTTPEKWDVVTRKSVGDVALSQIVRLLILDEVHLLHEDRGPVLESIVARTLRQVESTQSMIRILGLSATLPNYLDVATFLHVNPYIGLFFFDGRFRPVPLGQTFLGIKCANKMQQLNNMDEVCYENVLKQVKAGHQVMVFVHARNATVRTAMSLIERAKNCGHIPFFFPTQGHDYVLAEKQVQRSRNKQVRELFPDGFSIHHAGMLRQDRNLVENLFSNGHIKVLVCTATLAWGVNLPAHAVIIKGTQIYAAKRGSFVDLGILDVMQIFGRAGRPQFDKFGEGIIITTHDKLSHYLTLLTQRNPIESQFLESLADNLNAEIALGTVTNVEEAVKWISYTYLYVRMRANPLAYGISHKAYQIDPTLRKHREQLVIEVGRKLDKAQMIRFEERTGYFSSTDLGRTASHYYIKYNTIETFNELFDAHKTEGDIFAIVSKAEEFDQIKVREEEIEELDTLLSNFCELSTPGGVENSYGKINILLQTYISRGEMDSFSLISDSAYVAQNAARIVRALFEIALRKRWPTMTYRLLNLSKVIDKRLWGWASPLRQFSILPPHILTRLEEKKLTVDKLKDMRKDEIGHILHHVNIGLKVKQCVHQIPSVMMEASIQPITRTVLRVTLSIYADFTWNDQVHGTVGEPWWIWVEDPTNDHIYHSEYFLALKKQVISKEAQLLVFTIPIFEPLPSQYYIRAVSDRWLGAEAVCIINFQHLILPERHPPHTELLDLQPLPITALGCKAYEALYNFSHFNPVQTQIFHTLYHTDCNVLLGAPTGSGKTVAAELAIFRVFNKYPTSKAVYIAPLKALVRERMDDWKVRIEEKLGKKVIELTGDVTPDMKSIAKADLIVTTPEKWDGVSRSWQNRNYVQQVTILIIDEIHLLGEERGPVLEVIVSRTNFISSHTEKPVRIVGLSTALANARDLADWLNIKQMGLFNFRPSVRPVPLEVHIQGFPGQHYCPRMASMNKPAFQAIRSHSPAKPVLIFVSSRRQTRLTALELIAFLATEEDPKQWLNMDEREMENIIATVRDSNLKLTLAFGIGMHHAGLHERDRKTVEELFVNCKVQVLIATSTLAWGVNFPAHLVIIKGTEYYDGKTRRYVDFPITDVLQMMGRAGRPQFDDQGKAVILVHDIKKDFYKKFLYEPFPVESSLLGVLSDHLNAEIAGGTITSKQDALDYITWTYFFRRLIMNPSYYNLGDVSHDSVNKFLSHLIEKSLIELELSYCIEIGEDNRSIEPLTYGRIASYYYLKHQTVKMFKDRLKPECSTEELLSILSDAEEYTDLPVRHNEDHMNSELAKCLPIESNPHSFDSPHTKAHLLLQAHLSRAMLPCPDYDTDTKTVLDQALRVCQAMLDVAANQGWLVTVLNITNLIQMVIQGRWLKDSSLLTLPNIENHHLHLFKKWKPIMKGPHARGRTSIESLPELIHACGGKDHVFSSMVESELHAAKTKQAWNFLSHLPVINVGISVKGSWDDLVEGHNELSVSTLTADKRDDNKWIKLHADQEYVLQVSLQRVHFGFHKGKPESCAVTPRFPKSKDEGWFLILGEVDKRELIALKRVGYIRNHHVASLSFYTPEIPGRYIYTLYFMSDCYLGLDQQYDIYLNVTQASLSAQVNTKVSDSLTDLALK
ASCC3^HR carrying helicase-dead D611A-D1453A mutations (Q8N3C0, form named): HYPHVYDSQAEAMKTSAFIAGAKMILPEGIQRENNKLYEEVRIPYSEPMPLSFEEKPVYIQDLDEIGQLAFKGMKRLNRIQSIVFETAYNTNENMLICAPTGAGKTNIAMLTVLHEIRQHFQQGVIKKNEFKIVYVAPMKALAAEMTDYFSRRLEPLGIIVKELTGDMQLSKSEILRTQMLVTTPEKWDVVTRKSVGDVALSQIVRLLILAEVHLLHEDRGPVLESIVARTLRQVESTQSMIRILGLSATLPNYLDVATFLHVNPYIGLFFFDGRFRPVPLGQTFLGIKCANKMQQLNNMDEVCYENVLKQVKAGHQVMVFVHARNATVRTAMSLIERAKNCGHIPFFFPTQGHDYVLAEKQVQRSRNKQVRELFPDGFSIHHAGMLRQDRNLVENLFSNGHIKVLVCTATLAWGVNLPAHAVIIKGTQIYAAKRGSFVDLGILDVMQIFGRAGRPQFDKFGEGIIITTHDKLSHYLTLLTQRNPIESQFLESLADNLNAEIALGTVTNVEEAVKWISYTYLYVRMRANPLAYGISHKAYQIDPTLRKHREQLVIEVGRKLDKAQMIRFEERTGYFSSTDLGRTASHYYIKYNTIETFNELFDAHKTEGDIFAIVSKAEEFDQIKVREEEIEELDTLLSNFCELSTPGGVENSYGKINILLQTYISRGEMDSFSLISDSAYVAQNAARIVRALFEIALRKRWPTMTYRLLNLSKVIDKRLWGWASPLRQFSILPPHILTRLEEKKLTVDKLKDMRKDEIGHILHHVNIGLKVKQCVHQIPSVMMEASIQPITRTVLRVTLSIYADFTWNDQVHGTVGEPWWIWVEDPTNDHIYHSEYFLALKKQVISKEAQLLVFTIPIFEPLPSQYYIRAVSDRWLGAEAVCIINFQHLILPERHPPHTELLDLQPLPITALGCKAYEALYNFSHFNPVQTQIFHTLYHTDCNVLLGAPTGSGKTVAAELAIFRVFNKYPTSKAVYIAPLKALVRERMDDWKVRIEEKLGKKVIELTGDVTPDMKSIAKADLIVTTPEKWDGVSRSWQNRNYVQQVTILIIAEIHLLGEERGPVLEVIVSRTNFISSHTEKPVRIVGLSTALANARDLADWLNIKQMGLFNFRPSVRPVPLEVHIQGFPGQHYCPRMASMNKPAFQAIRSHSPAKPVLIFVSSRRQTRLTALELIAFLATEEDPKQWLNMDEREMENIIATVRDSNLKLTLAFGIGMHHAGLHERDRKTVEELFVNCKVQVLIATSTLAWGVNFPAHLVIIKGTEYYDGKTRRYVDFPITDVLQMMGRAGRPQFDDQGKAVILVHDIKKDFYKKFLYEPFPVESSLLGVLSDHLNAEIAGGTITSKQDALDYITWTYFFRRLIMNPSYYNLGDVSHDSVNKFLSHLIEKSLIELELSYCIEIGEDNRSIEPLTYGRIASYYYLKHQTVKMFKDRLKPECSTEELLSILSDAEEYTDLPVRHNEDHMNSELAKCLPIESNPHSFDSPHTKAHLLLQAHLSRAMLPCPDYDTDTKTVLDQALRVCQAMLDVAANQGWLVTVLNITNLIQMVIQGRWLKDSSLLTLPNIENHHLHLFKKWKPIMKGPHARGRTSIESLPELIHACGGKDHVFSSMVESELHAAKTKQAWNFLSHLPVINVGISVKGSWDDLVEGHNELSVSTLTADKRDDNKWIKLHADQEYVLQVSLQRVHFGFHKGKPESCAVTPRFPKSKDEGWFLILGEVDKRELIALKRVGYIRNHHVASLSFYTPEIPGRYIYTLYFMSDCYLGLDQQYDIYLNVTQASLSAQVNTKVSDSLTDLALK
UniProt P27694: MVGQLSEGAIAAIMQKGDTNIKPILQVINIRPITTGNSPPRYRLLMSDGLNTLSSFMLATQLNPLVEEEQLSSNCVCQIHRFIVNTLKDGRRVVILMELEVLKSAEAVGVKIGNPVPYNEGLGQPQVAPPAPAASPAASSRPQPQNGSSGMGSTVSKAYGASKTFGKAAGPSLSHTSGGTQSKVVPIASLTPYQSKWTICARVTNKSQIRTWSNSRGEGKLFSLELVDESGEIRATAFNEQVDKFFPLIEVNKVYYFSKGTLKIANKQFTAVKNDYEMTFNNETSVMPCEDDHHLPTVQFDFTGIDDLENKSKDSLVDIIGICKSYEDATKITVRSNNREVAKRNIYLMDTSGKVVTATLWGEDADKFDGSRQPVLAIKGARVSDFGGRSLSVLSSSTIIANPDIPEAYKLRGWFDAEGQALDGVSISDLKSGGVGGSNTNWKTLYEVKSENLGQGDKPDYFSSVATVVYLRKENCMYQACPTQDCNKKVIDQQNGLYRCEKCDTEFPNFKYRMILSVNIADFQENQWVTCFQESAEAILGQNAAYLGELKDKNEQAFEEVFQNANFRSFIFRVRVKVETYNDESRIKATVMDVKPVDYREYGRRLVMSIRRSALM

Assay [1] concerns the target ASCC3^HR carrying helicase-dead D611A-D1453A mutations (human) (UniProt Q8N3C0). Nature of the assay: co-purification (Ni-NTA, Strep-Tactin, SEC); TRIP4 co-produced with ASCC3^HR in High Five cells; lysate in 500 mM NaCl, 20 mM HEPES-NaOH pH 7.5; Ni-NTA, then Strep-Tactin, then SEC on Superdex 200 in 250 mM NaCl.
The target in assay [2] is dual-cassette helicase region of ASCC3 (residues 401-2202; ASCC3^HR WT) (human) (UniProt Q8N3C0). The description is as above.
The next assay concerns the target HA-RPA70 (UniProt P27694). Nature of the assay: co-IP; anti-HA IP from HEK293T expressing vector or HA-RPA70, endogenous ASCC2/ASCC3 blotted; with or without 4 mM HU for 4 h; with or without DNase I (50 units) in the lysate.

No constants are given. Whether binding was seen depends on the method and setting. For part of these data: In cells and extracts the contact can be indirect. Some binding calls cover weakened binding; strength is not graded here. For part of these data: Tags and fused reporters may be left off the sequences shown.

B1: full-length TRIP4 (TwinStrep-tagged) (protein, UniProt Q15650 1-581)
chain: MAVAGAVSGEPLVHWCTQQLRKTFGLDVSEEIIQYVLSIESAEEIREYVTDLLQGNEGKKGQFIEELITKWQKNDQELISDPLQQCFKKDEILDGQKSGDHLKRGRKKGRNRQEVPAFTEPDTTAEVKTPFDLAKAQENSNSVKKKTKFVNLYTREGQDRLAVLLPGRHPCDCLGQKHKLINNCLICGRIVCEQEGSGPCLFCGTLVCTHEEQDILQRDSNKSQKLLKKLMSGVENSGKVDISTKDLLPHQELRIKSGLEKAIKHKDKLLEFDRTSIRRTQVIDDESDYFASDSNQWLSKLERETLQKREEELRELRHASRLSKKVTIDFAGRKILEEENSLAEYHSRLDETIQAIANGTLNQPLTKLDRSSEEPLGVLVNPNMYQSPPQWVDHTGAASQKKAFRSSGFGLEFNSFQHQLRIQDQEFQEGFDGGWCLSVHQPWASLLVRGIKRVEGRSWYTPHRGRLWIAATAKKPSPQEVSELQATYRLLRGKDVEFPNDYPSGCLLGCVDLIDCLSQKQFKEQFPDISQESDSPFVFICKNPQEMVVKFPIKGNPKIWKLDSKIHQGAKKGLMKQNKAV
B1: the binding result in assay [1] and in assay [2] was “binds” each time.

B2: endogenous ASCC2 (HEK293T) (protein, UniProt Q9H1I8 1-757)
chain: MPALPLDQLQITHKDPKTGKLRTSPALHPEQKADRYFVLYKPPPKDNIPALVEEYLERATFVANDLDWLLALPHDKFWCQVIFDETLQKCLDSYLRYVPRKFDEGVASAPEVVDMQKRLHRSVFLTFLRMSTHKESKDHFISPSAFGEILYNNFLFDIPKILDLCVLFGKGNSPLLQKMIGNIFTQQPSYYSDLDETLPTILQVFSNILQHCGLQGDGANTTPQKLEERGRLTPSDMPLLELKDIVLYLCDTCTTLWAFLDIFPLACQTFQKHDFCYRLASFYEAAIPEMESAIKKRRLEDSKLLGDLWQRLSHSRKKLMEIFHIILNQICLLPILESSCDNIQGFIEEFLQIFSSLLQEKRFLRDYDALFPVAEDISLLQQASSVLDETRTAYILQAVESAWEGVDRRKATDAKDPSVIEEPNGEPNGVTVTAEAVSQASSHPENSEEEECMGAAAAVGPAMCGVELDSLISQVKDLLPDLGEGFILACLEYYHYDPEQVINNILEERLAPTLSQLDRNLDREMKPDPTPLLTSRHNVFQNDEFDVFSRDSVDLSRVHKGKSTRKEENTRSLLNDKRAVAAQRQRYEQYSVVVEEVPLQPGESLPYHSVYYEDEYDDTYDGNQVGANDADSDDELISRRPFTIPQVLRTKVPREGQEEDDDDEEDDADEEAPKPDHFVQDPAVLREKAEARRMAFLAKKGYRHDSSTAVAGSPRGHGQSRETTQERRKKEANKATRANHNRRTMADRKRSKGMIPS
Regarding B2, the binding entry with HA-RPA70 was “binds”.
